This test deals with ubiquitin (S. pombe (endogenous in S. pombe)) (UniProt P0CG72). The test is described as follows: co-IP.

Protein sequences, listed by entry. Tags and fused reporters are not part of them. Residues count along the entry.
UniProt P0CG72, 1-76: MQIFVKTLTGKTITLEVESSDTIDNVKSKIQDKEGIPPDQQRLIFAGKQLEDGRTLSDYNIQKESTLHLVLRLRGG

These are yes or no findings as the source states them, for the method shown. Binding seen in cells or lysates may run through a third protein. Some binding calls cover weakened binding; strength is not graded here. Tags and fused reporters may be left off the sequences shown.

B1: Cts1-flag-3HA (S. pombe CTP synthase tagged with flag and 3HA) (enzyme, UniProt O42644 1-600)
chain: MKYVLVSGGVISGIGKGVIASSTGLLLKTLGLKVTSIKIDPYMNIDAGTMSPLEHGEVFVLNDGGEVDLDLGNYERYLNVTLTHDNNITTGKVYSNVIQKERRGDYLGKTVQIVPHVTNEIQDWVERVARIPVDQSGEEPDVCIVELGGTVGDIESAAFVEAMRQFQFRVGHENFVSIHVSLVPVINGEQKTKPTQQAIRDLRSLGITPDLIACRCKQPLEKSVIDKISLFCHVGPEQVLAVHDVSSTYHVPQLLEDKLLEYLKIRFALDKISVSRELALAGENMWSSWKHLTQGYDHLFKKVTIVLVGKYTHLQDSYISVIKALEHSAMRCGRKLDLQWVEASHLEASTNTSDPLSYHKAWHLVCSANGILVPGGFGSRGVEGMIAAAKWARENNTPYLGICLGMQVAVIEFARSVCGIEGAFSEEFDKECENNVVVYMPEIDKDKLGGTMRLGLRPTFFQPNSEWSKLRKLHKMVDEVLERHRHRYEINPAFVSRLEQGGISFIGKDERGERMEIIEKRDHPYFVGVQYHPEYLSKPLKPSPPIFGLVAASAGLLDEFIQSGEEVEWSNFSHFNAESALADMNDSVEVTEEATVVTIS
Consider B1, for which the binding entry was “binds”.

B2: Cts1-YFP (S. pombe CTP synthase fused to YFP) (enzyme, UniProt O42644 1-600)
chain: MKYVLVSGGVISGIGKGVIASSTGLLLKTLGLKVTSIKIDPYMNIDAGTMSPLEHGEVFVLNDGGEVDLDLGNYERYLNVTLTHDNNITTGKVYSNVIQKERRGDYLGKTVQIVPHVTNEIQDWVERVARIPVDQSGEEPDVCIVELGGTVGDIESAAFVEAMRQFQFRVGHENFVSIHVSLVPVINGEQKTKPTQQAIRDLRSLGITPDLIACRCKQPLEKSVIDKISLFCHVGPEQVLAVHDVSSTYHVPQLLEDKLLEYLKIRFALDKISVSRELALAGENMWSSWKHLTQGYDHLFKKVTIVLVGKYTHLQDSYISVIKALEHSAMRCGRKLDLQWVEASHLEASTNTSDPLSYHKAWHLVCSANGILVPGGFGSRGVEGMIAAAKWARENNTPYLGICLGMQVAVIEFARSVCGIEGAFSEEFDKECENNVVVYMPEIDKDKLGGTMRLGLRPTFFQPNSEWSKLRKLHKMVDEVLERHRHRYEINPAFVSRLEQGGISFIGKDERGERMEIIEKRDHPYFVGVQYHPEYLSKPLKPSPPIFGLVAASAGLLDEFIQSGEEVEWSNFSHFNAESALADMNDSVEVTEEATVVTIS
For the molecule B2, the binding entry is listed as “binds”.

Source of the values: publication doi:10.1101/2021.12.06.470909.
